Experimental data reported in patent publication US3950537A, “Gastrointestinally active thioureas” (Rohm and Haas Company, priority 1975, dated 1976).

Columns and labels:
diarrhea = assay: Antidiarrheal test (castor oil diarrhea); type: in vivo, Swiss-Webster mice (adult male); settings: Mus musculus, po, 3 h, read-out: Antidiarrheal ED50 (inhibited diarrhea in 50% of the treated mice)
Protocol: Compounds which were active in the antimotility test were then evaluated in a secondary test which measured a counter-action on diarrhea. This was another type of antimotility test adapted from that reported by Janssen in U.S. Pat. No. 3,539,579. In this test adult male Swiss-Webster mice weighing 30 to 40 g. were employed, using 6 mice per treatment. The test compound was administered orally in a dosage series with a maximum of 30 mg./kg. either in water if soluble or else in 0.5% methyl cellulose. One hour after treatment, each animal received a single dose of 0.3 ml. of castor oil, administered orally. The animals were then individually caged and provided food and water. […] The results are reported in terms of an ED50, i.e., the dosage in mg./kg. which inhibited diarrhea in 50% of the treated mice.

[1] = test system: charcoal entering the cecum; assay: Antimotility test (charcoal entering the cecum); type: in vivo, mice (adult male); settings: Mus musculus, po, 3.5 h, read-out: Antimotility ED50 (prevented the charcoal from entering the cecum in 50% of the treated mice)

CN1CC[C@]23c4c5ccc(O)c4O[C@H]2[C@@H](O)C=C[C@H]3[C@H]1C5.O=S(=O)(O)O [morphine sulfate, reference compound] gave an ED50 (diarrhea) of 14 mg/kg and an ED50 [1] of 9.5 mg/kg.
